Source: the supplement of paper PMC10689618
Counter-ions that a name gives are not always drawn. The list shows a part of the results. Many values rest on one well or one pass, so single values are uncertain.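 Labelled rat cortical synaptosomes were engulfed by primary human fetal astrocytes. Engulfment equaled a red/green ratio, corrected for calcein live-cell signal and normalized to the plate median. Compounds were toxic when calcein dropped over 30%, and reduced phagocytosis when below 70% of the median above 5 µM.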

The molecules below were run on Human fetal astrocytes (assay: synaptosome phagocytosis (pHrodo/calcein intensity ratio) relative to plate median of data wells; higher = more phagocytosis). Conditions: 1.39 µM; 24 h.
In the case of `Cc1cc2c(cc1Cl)N(C(=O)Nc1cccc3ncccc13)CC2`, the synaptosome phagocytosis was 77.2%.
With `CNCC[C@@H](Oc1ccccc1C)c1ccccc1` [Tomoxetine] the synaptosome phagocytosis was 86.7%.
`CCSC(N)=Nc1ccc(C(F)(F)F)cc1` [TFPI hydrochloride] showed a synaptosome phagocytosis of 118%.
`NCCCCNS(=O)(=O)c1ccc2c(Cl)cccc2c1` was tested, and the synaptosome phagocytosis was 91.1%.
With `CC1CCN(CC[C@H]2CCCN2S(=O)(=O)c2cccc(O)c2)CC1` the synaptosome phagocytosis was 102%.
Work on `OC[C@H]1O[C@@H](n2cnc3c(Nc4ccccc4)ncnc32)[C@H](O)[C@@H]1O` [N6-Phenyladenosine] yielded a synaptosome phagocytosis of 102%.
Work on `CNCC[C@H](Oc1ccc(C(F)(F)F)cc1)c1ccccc1` [S-(+)-Fluoxetine hydrochloride] yielded a synaptosome phagocytosis of 76.7%.
Work on `Nc1nc(Cl)nc2c1ncn2[C@@H]1O[C@H](CO)[C@@H](O)[C@H]1O` [2-Chloroadenosine] yielded a synaptosome phagocytosis of 105%.
In the case of `C#C[C@]1(O)CC[C@H]2[C@@H]3CCC4=Cc5oncc5C[C@]4(C)[C@H]3CC[C@@]21C` [Danazol], the synaptosome phagocytosis was 107%.
`N#C/C(=C\c1ccc(O)c(O)c1)C(=O)c1ccc(O)c(O)c1` [Tyrphostin AG 538] was tested, and the synaptosome phagocytosis was 125%.
`NCC(O)c1ccc(O)c(O)c1` (racemic) [(±)-Norepinephrine (+)bitartrate] was tested, and the synaptosome phagocytosis was 211%.
`CN1CCN(CCCN2c3ccccc3Sc3ccc(Cl)cc32)CC1` [Prochlorperazine dimaleate] showed a synaptosome phagocytosis of 99.6%.
With `CCOC(=O)c1cnc2c(cnn2CC)c1NN=C(C)C` [Etazolate hydrochloride] the synaptosome phagocytosis was 69.9%.
With `NC/C=C/C(=O)O` [(E)-4-amino-2-butenoic acid] the synaptosome phagocytosis was 93.1%.
